# According to patent US20240141036A1:
# Positions count from the first letter of the chain named. No constants are given. Whether binding was seen depends on the method and setting. Some results given as binding are weak or reduced against the parent protein; the word gives no strength.
# T1: Lrig-1 protein expressed on the surface of L cells (human) (UniProt Q96JA1)
# T1 sequence: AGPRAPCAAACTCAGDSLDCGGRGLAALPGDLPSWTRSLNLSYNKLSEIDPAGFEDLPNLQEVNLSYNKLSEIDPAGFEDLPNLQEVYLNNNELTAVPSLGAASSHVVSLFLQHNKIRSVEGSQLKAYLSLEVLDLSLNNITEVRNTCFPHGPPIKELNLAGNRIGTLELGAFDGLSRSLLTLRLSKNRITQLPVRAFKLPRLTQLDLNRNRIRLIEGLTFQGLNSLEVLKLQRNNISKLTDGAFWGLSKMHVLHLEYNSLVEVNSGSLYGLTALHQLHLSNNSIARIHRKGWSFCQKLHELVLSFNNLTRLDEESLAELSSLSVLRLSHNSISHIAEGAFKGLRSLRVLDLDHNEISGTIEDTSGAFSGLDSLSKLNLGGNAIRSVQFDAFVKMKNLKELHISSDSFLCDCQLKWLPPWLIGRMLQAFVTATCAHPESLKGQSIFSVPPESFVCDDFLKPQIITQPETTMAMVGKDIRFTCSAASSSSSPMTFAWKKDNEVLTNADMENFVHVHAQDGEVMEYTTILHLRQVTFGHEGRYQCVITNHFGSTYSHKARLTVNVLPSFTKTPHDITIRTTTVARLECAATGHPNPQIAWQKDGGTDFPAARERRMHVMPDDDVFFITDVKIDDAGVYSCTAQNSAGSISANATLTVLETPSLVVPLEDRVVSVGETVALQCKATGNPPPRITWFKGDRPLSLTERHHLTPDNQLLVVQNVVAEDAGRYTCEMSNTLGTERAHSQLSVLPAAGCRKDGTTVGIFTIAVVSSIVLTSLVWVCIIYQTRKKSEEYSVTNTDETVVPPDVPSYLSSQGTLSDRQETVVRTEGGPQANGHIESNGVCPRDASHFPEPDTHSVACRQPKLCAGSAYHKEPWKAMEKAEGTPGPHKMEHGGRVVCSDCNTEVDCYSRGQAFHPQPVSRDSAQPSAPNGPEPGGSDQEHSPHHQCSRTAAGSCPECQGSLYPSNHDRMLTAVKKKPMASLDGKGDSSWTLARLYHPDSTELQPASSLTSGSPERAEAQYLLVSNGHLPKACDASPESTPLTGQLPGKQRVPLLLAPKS
# B1: GTC210-01 clone (Preparation Example 1) (antibody, mouse IgG2a, V domains shown)
# VH: EVQLLESGGGLVQPGGSLRLSCAASGFTFSGYDMSWVRQAPGKGLEWVSLIYPDSGNKYYADSVKGRFTISRDNSKNTLYLQMNSLRAEDTAVYYCARDAGLSWAGAFDYWGQGTLVTVSS
# VL: QSVLTQPPSASGTPGQRVTISCSGSSSNIGSNYVTWYQQLPGTAPKLLIYSDSHRPSGVPDRFSGSKSGTSASLAISGLQSEDEADYYCGSWDYSLSAYVFGGGTKLTVLR
# B2: GTC210-02 clone (Preparation Example 2) (antibody, mouse IgG2a, V domains shown)
# VH: EVQLLESGGGLVQPGGSLRLSCAASGFTFSNYYMSWVRQAPGKGLEWVSGISPGDSSTYYADSVKGRFTISRDNSKNTLYLQMNSLRAEDTAVYYCAKGLYSNPNEPFDYWGQGTLVTVSS
# VL: B1 VL with S23T, T35S, S51D, H54Q, Q80R, S91T, S97N, A98G
# B3: GTC210-03 clone (Preparation Example 3) (antibody, mouse IgG2a, V domains shown)
# VH: EVQLLESGGGLVQPGGSLRLSCAASGFTFSSYDMSWVRQAPGKGLEWVSGISPDGSNIYYADSVKGRFTISRDNSKNTLYLQMNSLRAEDTAVYYCAKVGLRCRYEACSYAYGMDVWGQGTLVTVSS
# VL: B1 VL with T35S, Q80R, G90A, S91T, Y94S, S97N, A98G
# B4: GTC210-04 clone (Preparation Example 4) (antibody, mouse IgG2a, V domains shown)
# VH: EVQLLESGGGLVQPGGSLRLSCAASGFTFSNYDMSWVRQAPGKGLEWVSSISPSSGSIYYADSVKGRFTISRDNSKNTLYLQMNSLRAEDTAVYYCAKDLDAFWRPSFDYWGQGTLVTVSS
# VL: B1 VL with S23T, S31N, Y33N, T35N, Q80R, Y94D
# B5: GTC110-02 clone (Preparation Example 6) (antibody, mouse IgG2a, V domains shown)
# VH: EVQLLESGGGLVQPGGSLRLSCAASGFTFSDYYMSWVRQAPGKGLEWVSGISHDSGSKYYADSVKGRFTISRDNSKNTLYLQMNSLRAEDTAVYYCARHWTTFDYWGQGTLVTVSS
# VL: B1 VL with Y33N, S51A, D52N, H54N, Q80R, S91A
# B6: GTC110-03 clone (Preparation Example 7) (antibody, mouse IgG2a, V domains shown)
# VH: EVQLLESGGGLVQPGGSLRLSCAASGFTFSNYAMSWVRQAPGKGLEWVSAIYPGGGSIYYADSVKGRFTISRDNSKNTLYLQMNSLRAEDTAVYYCARDILPCPWGRCYYDYAMDVWGQGTLVTVSS
# VL: B1 VL with G24D, Y33T, T35S, S51A, S53N, H54N, Q80R, S91T, A98G
# Target: T1, Lrig-1 protein expressed on the surface of L cells (human)
# Assay: FACS on L cells stably expressing Lrig-1, eFlour 670-conjugated secondary antibody
row,Binder,binding
1,B1,binds
2,B2,binds
3,B3,binds
4,B4,binds
5,B5,binds
6,B6,binds
